pIC50: −log10 of the molar value. The match of structure and compound is tentative.
Columns and labels:
PKMYT1 enzyme = PKMYT1 enzyme (Homo sapiens, UniProt Q99640); test: PKMYT1 enzyme inhibition activity, ADP-GLO method; format: biochemical; conditions: read-out: ADP-GLO IC50; PKMYT1 enzyme 10 nM, ATP 5 µM, 37°C 90 minutes
HCC1569 cells = test: Cytostatic activity, CTG assay (HCC1569); conditions: 5 days

Sequences of proteins named here, by UniProt entry; tags and fusion partners are left off.
UniProt Q99640, whole entry: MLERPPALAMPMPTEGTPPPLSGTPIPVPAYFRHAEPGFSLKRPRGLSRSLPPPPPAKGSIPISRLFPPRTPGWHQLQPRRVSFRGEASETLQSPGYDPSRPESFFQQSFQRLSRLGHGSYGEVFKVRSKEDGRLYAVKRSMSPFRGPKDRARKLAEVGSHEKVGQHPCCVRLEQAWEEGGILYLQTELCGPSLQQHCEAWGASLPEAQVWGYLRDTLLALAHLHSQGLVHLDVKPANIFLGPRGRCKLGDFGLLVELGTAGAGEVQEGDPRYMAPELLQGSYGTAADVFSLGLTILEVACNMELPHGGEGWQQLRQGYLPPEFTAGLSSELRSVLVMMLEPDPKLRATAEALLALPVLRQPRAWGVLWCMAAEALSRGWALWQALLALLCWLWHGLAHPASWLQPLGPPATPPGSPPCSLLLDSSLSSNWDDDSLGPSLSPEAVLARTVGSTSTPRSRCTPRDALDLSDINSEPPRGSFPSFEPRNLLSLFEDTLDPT

| SMILES | pIC50 (PKMYT1 enzyme) | pIC50 (HCC1569 cells) |
| --- | --- | --- |
| Cc1ccc(O)c(C)c1-n1c(N)c(C(N)=O)c2c3cccnc3c(C)cc21 [210] | 8.01 | – |
| Cc1cc2c(C(N)=O)c(N)n(-c3c(C)c(F)cc(O)c3Cl)c2nc1C [Example 114.1] | 8.38 | 7.16 |
| Cc1cc2c(C(N)=O)c(N)n(-c3c(C)c(F)cc(O)c3Cl)c2nc1C [Example 114] | 8.18 | 7.27 |
| Cc1ccc(O)c(C)c1-n1c(N)c(C(N)=O)c2c3cccnc3c(C)cc21 [209] | 7.54 | – |

From patent EP4624471A1, “PKMYT1 INHIBITOR, PREPARATION METHOD THEREFOR, AND PHARMACEUTICAL COMPOSITION AND USE THEREOF” (Shanghai Qilu Pharmaceutical Research and Development …, priority 2022, dated 2024)
